From patent US6565876B1, “Carnitine and inositol phosphate-containing composition useful as dietary supplement or drug” (Sigma-Tau HealthScience S.p.A., priority 1999, dated 2003)
At least one compound was matched to its structure with a doubt left.

Tests used:
[1] = tested on: carrageenin-induced oedema of the rat paw; assay: Carrageenin oedema test; type: in vivo; conditions: 250 mg/kg each, oral
Experimental: To assess the anti-inflammatory effect of the new composition the carrageenin oedema test was used, in which rat paws are injected with carrageenin. The injection of 0.1 mL of 1% carrageenin solution (Sigma Chemical, St. Louis, Mo., USA) in the subplantar area of the rat's right paw induced marked oedema of the paw which reached its maximum intensity 4-5 hours after injection. The oedema was measured by mercury plethysmography at various different time intervals up to the fourth hour after carrageenin injection. Both propionyl L-carnitine (250 mg/kg) and IP6 (250 mg/kg) were administered orally half an hour prior to the subplantar carrageenin injection.

chick cerebral neurons = assay: Neuronal hypoxia, NaCN-induced, ATP assay; type: cell-based; conditions: NaCN 1 mmol/L; propionyl L-carnitine 100 mg/L, IP6 50 mg/L
Experimental: To assess the protective activity of the composition according to the invention on hypoxia-induced damage at the neuronal level, tests were performed on cultures of chick cerebral neurons in which the reduction in cell respiration was induced by introducing NaCN into the cultures. […] The chick cerebral neuron cultures were prepared according to the technique described by […]., Nature, 281:378, 1979). Cytotoxic hypoxia was induced by adding NaCN to the culture medium to a final concentration of 1 mmol/L. After 120 min the medium was replaced by an NaCN-free medium, and the metabolism of the cells was blocked by washing with an iced buffer solution. The ATP assay was performed according to the procedure described by Werner (Werner A. J., Chromatogr. Biomed. Appl., 421:257, 1987).

[2] = tested on: swimming endurance in forced swimming; assay: Swimming endurance test; type: in vivo, mice; conditions: propionyl L-carnitine 200 mg/kg, IP6 100 mg/kg, oral on the three days preceding the test
Experimental: Since IP6, which is rich in phosphate groups, is a useful energy reserve, a series of tests were performed to establish whether its administration may increase the swimming endurance time in mice submitted to forced swimming in a rectangular tank full of water, according to the technique described by Zheng (Zheng R. L., Acta Pharmacol. Sinica, 14:47, 1993) and whether its effect could be enhanced by using it in combination with a carnitine, such as, for instance, propionyl L-carnitine. The tests were performed on various groups of animals treated with propionyl L-carnitine (200 mg/kg) or with IP6 (100 mg/kg) alone or with the two compounds in combination. The compounds were administered orally on the three days preceding the test. In the animals thus treated, swimming endurance time was measured as compared to control animals.

[3] = tested on: muscle lipoperoxidation (malondialdehyde); assay: Muscle fatigue test, forced muscular exercise on moving belt, MDA in gastrocnemius muscle; type: in vivo, rats; conditions: propionyl L-carnitine 200 mg/kg, IP6 100 mg/kg, three days before exercise
Experimental: Forced muscular exercise was tested in various groups of rats by making them run on a moving belt at controlled speed and angle of tilt, as described by Li (Li J. X., Acta Pharmacologica Sinica, 20:126, 1999) and Husain (Husain K., Pathophysiology, 4:69, 1997). The animals were made to run on an approximately 5° slope and at a belt speed of 28 m/min. The animals' stamina reached the point of exhaustion after approximately 85 min of exercise. The test was carried out in groups of animals which, during the three days preceding exercise, received 200 mg/kg of propionyl L-carnitine or 100 mg/kg of IP6 alone or in combination. Five and thirty minutes, respectively, after the end of exercise, samples of gastrocnemius muscle were taken from the sacrificed animals and used for measuring the malondialdehyde (MDA) content as a marker for the level of lipoperoxidation by means of reaction with thiobarbituric acid according to the method described by Ohkawa (Ohkawa H., Anal. Biochem., 95:351, 1979).

ornithine decarboxylase = assay: Antiproliferative activity, teleocidin-induced ornithine decarboxylase in epidermis; type: in vivo, mice; conditions: oral pretreatment propionyl L-carnitine 200 mg/kg, IP6 100 mg/kg
[4] = tested on: atherosclerotic vascular lesions of the abdominal aorta; assay: Anti-atherosclerotic activity, atherogenic diet; type: in vivo, male Wistar rats; conditions: rats; atherogenic diet six weeks; daily 150 mg/kg propionyl carnitine, 100 mg/kg IP6
Experimental: […] according to the regimen proposed by Melinow (Melinow M. R., Atherosclerosis, 48:105, 1983). At the end of the sixth week of treatment, marked atherosclerotic vascular lesions had formed which were particularly pronounced at the abdominal aorta level. The severity of these lesions was evaluated by a morphometric method, measuring the thickness of the abdominal aorta and the intensity of the staining induced by Sudan IV with a progressive scoring system from 1 to 5. In these tests, the rats received daily administrations of 150 mg/kg of propionyl carnitine and 100 mg/kg of IP6, together with their atherogenic diets.

SMILES: CCC(=O)OC(CC(=O)[O-])C[N+](C)(C)C [Propionyl L-carnitine, propionyl L-carnitine]
- inhibitory action on the inflammatory reaction induced by carrageenin (in words) [1]: slight inhibitory action
- ATP levels after anoxia and reoxygenation (in words) (chick cerebral neurons): a lesser reduction of ATP levels is observed as well as more rapid restoration of ATP levels
- mean swimming endurance time versus controls (in words) [2]: slightly increased
- muscle lipoperoxidation in muscle homogenate (in words) [3]: capable of reducing the levels of muscle lipoperoxidation
- reduction of the teleocidin-induced increase in ornithine decarboxylase activity (in words) (ornithine decarboxylase): significantly reduced
- protective effect against atherosclerotic lesions (morphometric examination and Sudan IV staining) [4]: only a slight protective effect
